Assay [1] has as its target T1, Human ASK1 (Homo sapiens, UniProt Q99683). Nature of the assay: ASK1 Cell Based Assay (phospho p38 read out in hASK1 transfected HEK293T-AP1 cells). As to conditions: 1 mM hydrogen peroxide.
The target of assay [2] is T1, Human ASK1. Nature of the assay: ASK1 Biochemical Assay (HTRF KinEASE-STK S3). To be noted: read-out: Biochemical Assay IC50; ATP 100 μM. For orientation: Time-resolved FRET reads energy transfer from a long-lived donor to a nearby acceptor.

The chains behind the UniProt entries cited, without tags or fusion partners. Residues count along the entry.
UniProt Q99683, 654-971 limits assumed: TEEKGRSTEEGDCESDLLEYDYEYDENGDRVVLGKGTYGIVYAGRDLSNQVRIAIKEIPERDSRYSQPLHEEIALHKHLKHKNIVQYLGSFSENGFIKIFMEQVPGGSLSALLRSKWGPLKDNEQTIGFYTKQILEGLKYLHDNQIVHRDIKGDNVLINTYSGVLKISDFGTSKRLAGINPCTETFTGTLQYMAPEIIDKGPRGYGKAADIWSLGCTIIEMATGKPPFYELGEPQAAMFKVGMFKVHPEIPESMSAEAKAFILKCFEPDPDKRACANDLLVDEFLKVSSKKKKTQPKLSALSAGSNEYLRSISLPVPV
UniProt Q99683, whole entry: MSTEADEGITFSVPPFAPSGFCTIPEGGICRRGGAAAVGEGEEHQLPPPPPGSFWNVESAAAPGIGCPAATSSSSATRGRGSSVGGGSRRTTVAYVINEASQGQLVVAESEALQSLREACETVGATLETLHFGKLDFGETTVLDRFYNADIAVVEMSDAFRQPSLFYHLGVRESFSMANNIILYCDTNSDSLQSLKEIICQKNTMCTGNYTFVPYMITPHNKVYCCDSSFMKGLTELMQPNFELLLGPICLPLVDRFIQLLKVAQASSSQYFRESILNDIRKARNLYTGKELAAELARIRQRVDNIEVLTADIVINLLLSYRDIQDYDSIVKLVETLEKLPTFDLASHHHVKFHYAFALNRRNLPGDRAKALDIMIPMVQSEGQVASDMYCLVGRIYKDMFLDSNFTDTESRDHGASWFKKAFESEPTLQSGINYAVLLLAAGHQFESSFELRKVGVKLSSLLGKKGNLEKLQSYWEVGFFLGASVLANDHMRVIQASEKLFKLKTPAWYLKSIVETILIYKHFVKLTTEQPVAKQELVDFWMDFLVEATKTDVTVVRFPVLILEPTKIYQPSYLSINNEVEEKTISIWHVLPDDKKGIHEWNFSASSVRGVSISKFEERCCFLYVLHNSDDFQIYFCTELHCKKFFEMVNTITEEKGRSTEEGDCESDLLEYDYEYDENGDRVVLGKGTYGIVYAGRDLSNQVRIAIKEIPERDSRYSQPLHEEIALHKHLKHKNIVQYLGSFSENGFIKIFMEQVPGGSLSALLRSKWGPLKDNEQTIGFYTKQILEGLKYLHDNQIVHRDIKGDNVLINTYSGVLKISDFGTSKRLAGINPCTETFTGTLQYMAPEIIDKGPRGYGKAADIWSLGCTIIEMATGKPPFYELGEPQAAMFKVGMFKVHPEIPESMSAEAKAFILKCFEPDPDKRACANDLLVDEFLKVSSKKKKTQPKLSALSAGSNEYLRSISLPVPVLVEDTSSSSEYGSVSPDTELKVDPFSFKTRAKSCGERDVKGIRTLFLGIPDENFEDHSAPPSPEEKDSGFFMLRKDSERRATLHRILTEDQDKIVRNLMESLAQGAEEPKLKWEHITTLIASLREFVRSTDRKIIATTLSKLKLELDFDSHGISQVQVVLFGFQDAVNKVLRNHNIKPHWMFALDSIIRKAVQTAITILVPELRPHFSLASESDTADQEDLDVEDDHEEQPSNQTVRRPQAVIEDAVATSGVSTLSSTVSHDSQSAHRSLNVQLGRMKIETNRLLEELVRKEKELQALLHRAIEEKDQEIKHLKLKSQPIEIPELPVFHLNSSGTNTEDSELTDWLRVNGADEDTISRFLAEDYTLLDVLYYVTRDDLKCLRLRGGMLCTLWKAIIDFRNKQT

The structures given here were assigned with low confidence; some may be wrong. Some results are limits rather than exact numbers.

One may read the IC50 as the concentration at which inhibition is half-maximal.

Turning to `COCCS(=O)(=O)c1ccc(N2CCN(c3cccc(-c4nncn4C(C)C)n3)C2=O)cn1`, the values for the IC50 against Human ASK1 [1] and at Human ASK1 [2] were greater than 1000 nM and less than 100 nM, respectively.

On to `COc1cc(N2CCN(c3cccc(-c4nncn4C(C)C)n3)C2=O)ccc1S(C)(=O)=O`, for which the IC50 at Human ASK1 [2] was greater than 100 nM. On the same count and under the same terms, under `CS(=O)(=O)c1ccc(N2CCN(c3cccc(-c4nncn4C4CC4)n3)C2=O)cc1` stands less than 100 nM.

The values above are taken from US20220332700A1, “NOVEL APOPTOSIS SIGNAL-REGULATING KINASE 1 INHIBITORS” (MANKIND PHARMA LTD, priority 2019, published 2022).
